Test system: MCF-7 cell line
Test: MTT cytotoxicity assay in breast cancer cell line (MCF-7)
Assay type: cell-based
Details: Homo sapiens, MCF7, 24 h treatment, mean ± SD, read-out: IC50 on MCF-7 cell lines
Experimental: The cytotoxic effect of the isolated compounds from C. papaya on MCF-7 cells line was evaluated using MTT assay which measures metabolic activity as an indicator of cellular viability and proliferation.
Briefly, breast cancer cell line (MCF-7) were obtained from American Type Culture Collection and cultured in DMEM medium (Invitrogen/Life Technologies) supplemented with 10% FBS (Hyclone, USA). Insulin (10 μg mL^−1, Sigma-Aldrich, USA) and 1% penicillin–streptomycin. the cells were seeded in 96-well plates (VWR, Switzerland) at cell density 1.2–1.8 × 10^4 cells per well. […] After treatments, the medium was removed from all wells of the plate and 20 μL of the MTT reagent (Sigma-Aldrich, USA) (0.5 mg mL^−1) in PBS was added and incubated for 3.5 h at 37 °C. The solution was removed and 50 μL of DMSO was added, incubated for 5 min and the absorbance was measured at 570 nm.
Results are expressed as mean ± standard deviation (SD) based on triplicate experiments. The IC50 values of the tested compounds were determined using curve fitting in the R programming language and associated packages including Magrittr,[45] drc[46] and ggplot2.[47] Graphs and figures were generated using R console and PyMOL (PyMOL Molecular Graphics System, Schrödinger).

CN[C@@H]1C[C@H]2O[C@@](C)([C@@H]1OC)n1c3ccccc3c3c4c(c5c6ccccc6n2c5c31)C(=O)NC4 [Staurosporine, reference compound]
IC50: 10.2 ± 0.58 µM

Reference: paper PMC8985094, “Chemical constituents from Carica papaya Linn. leaves as potential cytotoxic, EGFR^wt and aromatase (CYP19A) inhibitors; a study supported by molecular docking” (RSC Advances, 2022)
